Values of other authors, collected in patent US20040241049A1, “Elastomeric tools for the fabrication of elastomeric devices and uses thereof” (priority 2003, published 2004).

System: α1-acid glycoprotein, αAGP
Conditions: displacement of quinaldine red from αAGP; stated as known

Structure (SMILES): CCN(CC)CC(=O)Nc1c(C)cccc1C [lidocaine]
- inhibition of QR/αAGP binding (binder / non-binder): known inhibitors to QR/αAGP binding
